According to the supplement of paper PMC5949888:
Most values lie at the floor of the assay. Slopes are relative: functional sequences can read slightly below zero.

These substances were tested on Saccharomyces cerevisiae PS128 hsf1 delta, HSF1(1-493) fusion (assay: growth estimate (transactivation domain function in HSF1 fusion, heat-shock survival) (a.u. (slope of normalised read count over time)); higher = stronger growth at 37°C, i.e. more transactivation activity). Conditions: library: random library.

Row | Substance | growth estimate
1 | VRNKAEIGPHQFKRLFRAWS | -0.15
2 | VRNR | -0.246
3 | VRPER | < -0.25
4 | VRPGCLKVRSGKLKPIIWAY | < -0.25
5 | VRPGMKS | < -0.25
6 | VRPKLGWLSLVTF | < -0.25
7 | VRPSDGSCQCFSRSQGIFPV | < -0.25
8 | VRPSPGLI | < -0.25
9 | VRPSRVAPRGRCVHVHSLIG | < -0.25
10 | VRPTGDRKVRALSATAYDSD | < -0.25
11 | VRPYMRKNNRTAHHHSLTVR | < -0.25
12 | VRPYSV | < -0.25
13 | VRQLCQSATLYRIR | < -0.25
14 | VRQLFGTRISL | < -0.25
15 | VRQRLYSEIATYEHVQKETL | < -0.25
16 | VRQRWRLMSGLLSLVKLQDR | < -0.25
17 | VRQTCMRHWVRLQSVGNRAW | < -0.25
18 | VRR | < -0.25
19 | VRRCHGDHPGQPVLYVTSPI | < -0.25
20 | VRRCHSLDIVRIPVGIMVVL | < -0.25
21 | VRRG | < -0.25
22 | VRRGCNLD | < -0.25
23 | VRRIGSMWERIVHC | < -0.25
24 | VRRKVNHRLASQFIY | < -0.25
25 | VRRPAH | < -0.25

Row | Substance | growth estimate
26 | VRRRNHKARVVLKR | < -0.25
27 | VRSGFGSARQMLCQHRQLCG | < -0.25
28 | VRSGVSVDISGRTQRVFPAW | -0.243
29 | VRSIGTHGQVQPTAVRRQQL | < -0.25
30 | VRSVGTPVPLDE | < -0.25
31 | VRTFVKFGRWPCWFSLCVWG | < -0.25
32 | VRTHTCVRYGTVGSMLELVW | < -0.25
33 | VRTISRLLVGKPR | < -0.25
34 | VRTQFRKRQRSYCLTPHILP | < -0.25
35 | VRTSHRIRRWFLRWSVTTNS | < -0.25
36 | VRTSIQGLSGRNSASSGGSD | < -0.25
37 | VRTVVS | < -0.25
38 | VRVFNPEVRLKTLGYLN | < -0.25
39 | VRVGTWERYSV | < -0.25
40 | VRVHFGPIPDIKQASKKHPE | < -0.25
41 | VRVKSLRREVSWSP | < -0.25
42 | VRVLCR | < -0.25
43 | VRVLNGLGAANNETITGAGS | < -0.25
44 | VRVLY | < -0.25
45 | VRVPRYFRVDYTTL | 0.0603
46 | VRVQG | < -0.25
47 | VRW | < -0.25
48 | VRWLLNWWL | < -0.25
49 | VRYRIKNSVLGVNGISHRA | < -0.25
50 | VRYSYPTRSPTMQRPKPVVM | < -0.25

Row | Substance | growth estimate
51 | VRYV | < -0.25
52 | VSAKAMRLHRVTLKSTIPTF | < -0.25
53 | VSCARVLNSYGEAGSLTFAR | < -0.25
54 | VSCGYGRNVHKGIAPTDSSA | -0.246
55 | VSCRI | < -0.25
56 | VSCTLTAASVRMTVGSGSMK | < -0.25
57 | VSDSSAHRLEHCDILKR | < -0.25
58 | VSDYRQGRIETYQEL | < -0.25
59 | VSE | < -0.25
60 | VSEDRFSAQFGSEK | < -0.25
61 | VSEFEH | < -0.25
62 | VSEGGD | < -0.25
63 | VSEKRRRVVSLAFDKTRGIG | < -0.25
64 | VSEPGTRNSVQWVTFNPVGL | < -0.25
65 | VSERFNSCDVSRPGRESVFA | < -0.25
66 | VSERFYLGTPGRNRIATCAT | < -0.25
67 | VSERRSVSTVLRMRRRRFVP | < -0.25
68 | VSGAFGLPPCVL | < -0.25
69 | VSGGSLRHRLIPLGSVVP | < -0.25
70 | VSGIIGECPSKSIDVLEFTV | < -0.25
71 | VSGLGLCANTREVGGSARYE | < -0.25
72 | VSGNRVGICILN | < -0.25
73 | VSGSTGRAGRGIRRISIIGR | < -0.25
74 | VSGTVGTDSRNYRLRDCC | < -0.25
75 | VSGWLLEVPHGLGESADKDP | < -0.25

Fetched one by one from above:
Row | Substance | growth estimate
58 | VSDYRQGRIETYQEL | < -0.25
51 | VRYV | < -0.25
60 | VSEDRFSAQFGSEK | < -0.25
54 | VSCGYGRNVHKGIAPTDSSA | -0.246
52 | VSAKAMRLHRVTLKSTIPTF | < -0.25
62 | VSEGGD | < -0.25
71 | VSGLGLCANTREVGGSARYE | < -0.25

The list continues:

Row | Substance | growth estimate
76 | VSHGGSTARGKADVAHVDVS | < -0.25
77 | VSIDVPSLLS | < -0.25
78 | VSIEGWERARRETA | < -0.25
79 | VSIR | < -0.25
80 | VSKGYNGLPSLKAM | < -0.25
81 | VSKPLISTDRKLYVKLSAWR | < -0.25
82 | VSLG | < -0.25
83 | VSLGVKLFNGKGCKWVQGTV | < -0.25
84 | VSLIRYVVSAISMIQPHRSA | < -0.25
85 | VSLKAWGLDIYMEVSITLTR | < -0.25
86 | VSLPGSTPSVARLQTMRMGR | < -0.25
87 | VSLRSIA | < -0.25
88 | VSLWTRGFANASRLG | < -0.25
89 | VSMHRLCLTRGRD | < -0.25
90 | VSN | < -0.25
91 | VSNCA | < -0.25
92 | VSNRSNGVILRDRE | < -0.25
93 | VSNWIPPILATLGTPPILKS | < -0.25
94 | VSPDANCDFRACF | < -0.25
95 | VSPGLSKEKQ | -0.245
96 | VSPHYLATPS | < -0.25
97 | VSPVGT | < -0.25
98 | VSPVPLRINCRVRSNHPRWE | < -0.25
99 | VSQGLNQ | < -0.25
100 | VSQSREFTDIDVGRAESVIR | < -0.25

Row | Substance | growth estimate
101 | VSQSVWDRAPQSMTFDRQWA | < -0.25
102 | VSQTQRLS | < -0.25
103 | VSSEIEF | < -0.25
104 | VSSERALGGTLSEQGQGYGD | < -0.25
105 | VSSLSGNGDIA | < -0.25
106 | VSSN | < -0.25
107 | VSSPFSVWDNSVPG | < -0.25
108 | VSSQKLDFWVGADRVASVEG | < -0.25
109 | VSSVKLLGLIYRYLLDSPRK | -0.25
110 | VSTGDEIISESMNQGRQLWV | < -0.25
111 | VSTNIGYLGDLLQTGPIWVP | < -0.25
112 | VSTRPLAKYPHTREELGIVA | < -0.25
113 | VSVAVRVPLRCTNGTASEKR | < -0.25
114 | VSVFAITTQVLGPTSA | < -0.25
115 | VSVSEPSISRNRDNNGLVCQ | < -0.25
116 | VSVTATRLAHASRY | < -0.25
117 | VSVVEASTARVNVDSVPSSK | < -0.25
118 | VSWGA | < -0.25
119 | VSWRPGAQGHSK | < -0.25
120 | VSY | < -0.25
121 | VSYLSR | < -0.25
122 | VSYPFQVRGRTIPAKAKPAI | < -0.25
123 | VSYRP | -0.145
124 | VTANGGIVESIPDISVPDRA | < -0.25
125 | VTAPHHNSQKHGKILWRQAE | < -0.25

Look-ups from the entries so far:
growth estimate, VSWGA is entered as < -0.25
growth estimate, VSE is entered as < -0.25
growth estimate, VSTGDEIISESMNQGRQLWV is entered as < -0.25
growth estimate, VSEGGD is entered as < -0.25
growth estimate, VRPER is entered as < -0.25
growth estimate, VSNCA is entered as < -0.25

Additional records follow.

Row | Substance | growth estimate
126 | VTARKQR | < -0.25
127 | VTCAGLHYPE | -0.245
128 | VTCSHLSQHSMRGFRGLSAS | < -0.25
129 | VTCT | < -0.25
130 | VTCYTRADRGKLGAWRHVSE | < -0.25
131 | VTDRADKLS | < -0.25
132 | VTEHRYV | < -0.25
133 | VTETRRVPRVRGCSICGLRN | < -0.25
134 | VTEVKVPSRLESL | < -0.25
135 | VTEVTVKRVS | < -0.25
136 | VTGHSYRWRVQCRTV | < -0.25
137 | VTGWCIGNY | < -0.25
138 | VTH | -0.231
139 | VTHDGPTRFAGHDLDLTARR | < -0.25
140 | VTIAPPLPTSGAGRYANNLQ | < -0.253
141 | VTIARFLRISRAMFTPVWLP | < -0.25
142 | VTIG | < -0.25
143 | VTIQVSLFFGSCTFLHTRST | < -0.25
144 | VTKEKPMIDSVNLNS | < -0.25
145 | VTKLVRSTSGANRETRDRAR | < -0.25
146 | VTLELMLCEFRAIIYRWRNV | < -0.25
147 | VTLTEISVPMQEYEHHSTTA | < -0.25
148 | VTMDLQSFTGVSRFVGVSVP | < -0.25
149 | VTMGLRRSADVLHNPVYGAV | < -0.25
150 | VTPH | < -0.25

Row | Substance | growth estimate
151 | VTRAQDLRTTEMWFIRPFAI | < -0.25
152 | VTRIKSIETGFRFGGISSAS | < -0.25
153 | VTRMHGSPLLPEVNCEEFRT | < -0.25
154 | VTRPHTLLSKNQMS | < -0.25
155 | VTRPTTTLLTEIVLDPARWN | < -0.25
156 | VTRTRSMAHSSGLRGSVQ | < -0.25
157 | VTRVFAADLITFKRPSERDR | < -0.25
158 | VTSEI | < -0.25
159 | VTSLLLGVFFASLCQALTG | -0.219
160 | VTTAEAACNE | < -0.25
161 | VTTCPVAGPKPERPAAL | < -0.25
162 | VTTDFV | < -0.25
163 | VTVPV | < -0.25
164 | VTYALDQT | < -0.25
165 | VVAATIGHTAYS | < -0.25
166 | VVAKILCSTPGEILTVGRVR | < -0.25
167 | VVALFKDLF | < -0.25
168 | VVCERLPESTEYCAFSYTMG | -0.18
169 | VVCVTACRIA | < -0.25
170 | VVDASQVDSGRFYVIYNGYG | < -0.25
171 | VVEFKYGDVVESSQVCISAD | < -0.25
172 | VVEGGASWWGSRIKVRAAFY | < -0.25
173 | VVEGGSFEQS | < -0.25
174 | VVEVRISYLDHSVRKPNALN | < -0.25
175 | VVFGVPPGRFHDATGSGRAR | < -0.25

Row | Substance | growth estimate
176 | VVGDLGLSKRRARHGITITA | < -0.25
177 | VVGLVDGVGLEMIYTVSVTK | < -0.25
178 | VVGSHFRRRWGNVRPTCQHS | < -0.25
179 | VVGSVTVSPICF | < -0.25
180 | VVGTLAPGFVTPSHRAC | < -0.25
181 | VVHRGILRTNG | < -0.25
182 | VVHSFPRCYVPGANALAGLY | -0.231
183 | VVIPSLLHVNTTLVCKKYMP | < -0.25
184 | VVIRLDIATGRTTLSADRSL | < -0.25
185 | VVIVSNMAL | < -0.25
186 | VVLALIARPYVSSVQPVVP | < -0.25
187 | VVLDLQP | < -0.25
188 | VVLDSCSTDDNWGPADEV | < -0.25
189 | VVLGLRR | < -0.25
190 | VVLRSARCRQRDERSCRQGI | < -0.25
191 | VVLVRRIG | < -0.25
192 | VVNENLPVWRF | < -0.25
193 | VVNVTNRGRRSMYWSLVQES | < -0.25
194 | VVPGRTLILRLSGSRAAAPR | -0.208
195 | VVQPMAHVHGLSQHGDRCLT | -0.186
196 | VVRCKDSIGMNPRTIQLSKL | < -0.25
197 | VVRCKEKLELGACRGAAWWP | < -0.25
198 | VVRDY | < -0.25
199 | VVRFCIREAPPPW | < -0.25
